The results in this text go back to paper PMC4777444.

Chains of the proteins cited; added tags and fusions are not shown.
UniProt Q92769: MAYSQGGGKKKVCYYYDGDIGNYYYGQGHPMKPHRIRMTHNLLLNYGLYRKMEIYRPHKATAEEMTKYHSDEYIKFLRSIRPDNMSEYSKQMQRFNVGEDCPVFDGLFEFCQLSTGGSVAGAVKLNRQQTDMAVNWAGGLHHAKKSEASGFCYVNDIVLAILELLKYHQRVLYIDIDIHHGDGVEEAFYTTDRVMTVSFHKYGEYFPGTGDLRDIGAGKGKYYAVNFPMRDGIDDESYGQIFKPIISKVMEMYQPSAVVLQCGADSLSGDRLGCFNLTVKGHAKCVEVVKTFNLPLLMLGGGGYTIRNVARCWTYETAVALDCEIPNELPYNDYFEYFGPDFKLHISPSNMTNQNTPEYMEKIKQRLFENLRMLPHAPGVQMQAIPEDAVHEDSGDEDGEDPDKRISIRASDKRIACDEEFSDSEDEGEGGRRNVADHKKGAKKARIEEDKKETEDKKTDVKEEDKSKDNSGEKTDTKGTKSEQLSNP
UniProt Q8N108: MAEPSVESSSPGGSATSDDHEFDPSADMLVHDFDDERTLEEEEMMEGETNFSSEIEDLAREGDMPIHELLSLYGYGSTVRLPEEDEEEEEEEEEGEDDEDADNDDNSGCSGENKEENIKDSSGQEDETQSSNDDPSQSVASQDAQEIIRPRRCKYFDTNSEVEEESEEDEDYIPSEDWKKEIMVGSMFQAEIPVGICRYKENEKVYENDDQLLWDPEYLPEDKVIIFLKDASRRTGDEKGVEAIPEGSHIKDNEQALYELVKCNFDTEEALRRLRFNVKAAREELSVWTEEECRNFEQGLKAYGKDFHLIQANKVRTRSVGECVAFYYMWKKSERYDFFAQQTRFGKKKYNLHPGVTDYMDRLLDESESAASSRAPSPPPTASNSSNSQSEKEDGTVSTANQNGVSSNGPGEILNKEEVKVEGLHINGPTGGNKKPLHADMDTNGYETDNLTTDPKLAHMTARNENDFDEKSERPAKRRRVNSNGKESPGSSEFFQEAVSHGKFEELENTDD
UniProt Q96KQ7: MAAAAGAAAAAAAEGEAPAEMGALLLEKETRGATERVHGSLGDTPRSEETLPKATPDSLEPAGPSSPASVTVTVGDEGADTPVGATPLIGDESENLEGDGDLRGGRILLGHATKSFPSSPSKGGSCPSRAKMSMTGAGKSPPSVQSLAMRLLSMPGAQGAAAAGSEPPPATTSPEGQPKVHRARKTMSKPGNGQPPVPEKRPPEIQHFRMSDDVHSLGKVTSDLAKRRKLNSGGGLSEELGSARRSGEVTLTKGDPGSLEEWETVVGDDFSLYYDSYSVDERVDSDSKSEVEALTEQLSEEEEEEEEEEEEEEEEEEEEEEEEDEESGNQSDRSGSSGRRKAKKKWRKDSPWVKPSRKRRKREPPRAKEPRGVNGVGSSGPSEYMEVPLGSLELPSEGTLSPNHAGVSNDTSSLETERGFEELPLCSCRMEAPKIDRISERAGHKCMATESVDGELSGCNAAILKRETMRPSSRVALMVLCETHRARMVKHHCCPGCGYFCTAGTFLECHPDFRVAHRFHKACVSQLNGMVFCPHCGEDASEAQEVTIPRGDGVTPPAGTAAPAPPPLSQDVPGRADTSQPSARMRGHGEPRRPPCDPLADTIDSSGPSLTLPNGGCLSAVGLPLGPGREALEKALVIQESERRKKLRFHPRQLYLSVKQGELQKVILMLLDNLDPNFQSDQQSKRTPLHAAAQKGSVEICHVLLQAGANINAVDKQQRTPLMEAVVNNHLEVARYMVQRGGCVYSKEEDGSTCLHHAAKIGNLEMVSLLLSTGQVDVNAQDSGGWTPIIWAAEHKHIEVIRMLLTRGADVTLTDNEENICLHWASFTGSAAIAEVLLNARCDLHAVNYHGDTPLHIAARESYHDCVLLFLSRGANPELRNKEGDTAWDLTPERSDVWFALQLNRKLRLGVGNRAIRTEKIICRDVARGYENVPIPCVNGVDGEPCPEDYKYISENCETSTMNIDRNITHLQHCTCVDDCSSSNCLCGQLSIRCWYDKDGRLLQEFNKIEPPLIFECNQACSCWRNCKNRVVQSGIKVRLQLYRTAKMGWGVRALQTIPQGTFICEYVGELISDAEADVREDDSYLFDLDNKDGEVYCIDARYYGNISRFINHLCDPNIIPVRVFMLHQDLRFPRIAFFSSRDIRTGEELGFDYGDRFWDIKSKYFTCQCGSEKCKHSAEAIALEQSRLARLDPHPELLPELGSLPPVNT
UniProt Q13263: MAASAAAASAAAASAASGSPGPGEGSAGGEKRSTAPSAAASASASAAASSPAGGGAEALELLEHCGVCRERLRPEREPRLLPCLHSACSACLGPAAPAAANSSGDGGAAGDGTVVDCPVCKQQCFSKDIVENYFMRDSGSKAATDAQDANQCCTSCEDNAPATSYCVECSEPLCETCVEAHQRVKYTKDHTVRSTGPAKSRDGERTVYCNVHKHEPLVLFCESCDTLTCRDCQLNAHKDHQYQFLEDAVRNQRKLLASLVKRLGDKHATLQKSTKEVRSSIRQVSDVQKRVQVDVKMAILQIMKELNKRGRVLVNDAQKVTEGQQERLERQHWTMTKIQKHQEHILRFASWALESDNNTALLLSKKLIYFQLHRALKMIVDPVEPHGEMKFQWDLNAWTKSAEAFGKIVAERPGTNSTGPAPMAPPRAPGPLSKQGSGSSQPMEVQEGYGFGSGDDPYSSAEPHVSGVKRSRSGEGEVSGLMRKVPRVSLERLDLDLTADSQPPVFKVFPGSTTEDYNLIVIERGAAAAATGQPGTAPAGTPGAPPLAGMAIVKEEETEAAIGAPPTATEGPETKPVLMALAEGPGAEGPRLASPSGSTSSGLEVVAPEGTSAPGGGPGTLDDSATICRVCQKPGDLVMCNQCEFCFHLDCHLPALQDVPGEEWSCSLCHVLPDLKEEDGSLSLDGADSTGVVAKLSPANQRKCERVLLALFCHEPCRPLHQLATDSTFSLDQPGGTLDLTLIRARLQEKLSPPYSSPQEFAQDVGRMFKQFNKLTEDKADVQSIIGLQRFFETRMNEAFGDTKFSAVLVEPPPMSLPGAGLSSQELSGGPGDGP
UniProt Q13185: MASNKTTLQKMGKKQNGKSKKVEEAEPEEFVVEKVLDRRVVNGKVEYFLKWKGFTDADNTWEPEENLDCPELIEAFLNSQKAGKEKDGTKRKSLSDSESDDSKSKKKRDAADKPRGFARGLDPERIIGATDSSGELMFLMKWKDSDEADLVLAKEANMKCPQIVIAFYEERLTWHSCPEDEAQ
UniProt Q13547: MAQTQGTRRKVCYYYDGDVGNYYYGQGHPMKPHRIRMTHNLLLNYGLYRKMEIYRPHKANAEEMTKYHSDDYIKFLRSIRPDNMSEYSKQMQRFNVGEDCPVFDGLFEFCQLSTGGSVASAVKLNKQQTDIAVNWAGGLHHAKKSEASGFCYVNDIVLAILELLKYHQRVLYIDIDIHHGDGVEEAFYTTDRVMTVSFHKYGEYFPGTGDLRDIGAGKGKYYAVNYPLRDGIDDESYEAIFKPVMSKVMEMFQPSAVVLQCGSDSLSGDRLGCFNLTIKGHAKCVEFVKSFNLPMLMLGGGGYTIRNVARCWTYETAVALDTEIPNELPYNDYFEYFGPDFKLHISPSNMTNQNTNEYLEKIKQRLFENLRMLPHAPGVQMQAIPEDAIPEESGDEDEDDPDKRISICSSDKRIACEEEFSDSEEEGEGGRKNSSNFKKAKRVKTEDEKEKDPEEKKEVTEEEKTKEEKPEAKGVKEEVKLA

Read-outs that look alike come from different tables or passages of the source. No constants are given. Whether binding was seen depends on the method and setting. For some of these results: Binding seen in cells or lysates may run through a third protein. Some binding calls cover weakened binding; strength is not graded here. For some of these results: Sequences can lack the tags named with a protein.

For test [1], the target named is T1, His6-Protein-C-tagged BAHD1 (UniProt Q8TBE0).
T1 sequence: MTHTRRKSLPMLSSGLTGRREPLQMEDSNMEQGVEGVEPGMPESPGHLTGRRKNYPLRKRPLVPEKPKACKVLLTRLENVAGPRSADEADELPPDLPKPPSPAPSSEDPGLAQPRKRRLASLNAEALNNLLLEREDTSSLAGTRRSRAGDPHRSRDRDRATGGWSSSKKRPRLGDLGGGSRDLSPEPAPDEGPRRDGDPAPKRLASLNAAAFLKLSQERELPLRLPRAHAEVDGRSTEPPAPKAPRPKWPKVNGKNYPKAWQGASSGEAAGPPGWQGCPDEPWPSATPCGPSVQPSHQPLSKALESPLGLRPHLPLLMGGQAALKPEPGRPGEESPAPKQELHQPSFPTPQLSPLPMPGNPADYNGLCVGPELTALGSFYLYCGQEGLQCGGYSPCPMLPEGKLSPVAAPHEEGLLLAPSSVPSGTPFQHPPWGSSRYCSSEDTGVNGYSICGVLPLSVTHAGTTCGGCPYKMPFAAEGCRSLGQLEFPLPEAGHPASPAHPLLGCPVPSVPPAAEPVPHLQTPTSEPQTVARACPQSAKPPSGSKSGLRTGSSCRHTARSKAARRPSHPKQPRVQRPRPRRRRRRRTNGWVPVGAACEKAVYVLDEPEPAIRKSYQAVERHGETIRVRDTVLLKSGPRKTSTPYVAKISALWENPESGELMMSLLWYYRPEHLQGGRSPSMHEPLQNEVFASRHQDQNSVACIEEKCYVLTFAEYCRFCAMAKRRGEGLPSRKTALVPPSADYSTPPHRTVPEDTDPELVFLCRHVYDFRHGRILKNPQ
Put plainly: tandem affinity purification with immunoblot; His6-Protein-C-BAHD1 from solubilized chromatin extracts of HPT-BAHD1 cells on anti-protein C affinity matrix (E1) and nickel-Sepharose (E2); immunoblots of inputs, E1 and E2; HPT-CT cells as control. Background: In western blotting, separated proteins are transferred to a membrane and probed.

Another test has as its target T2, V5-tagged BAHD1 (UniProt Q8TBE0).
T2 sequence: T1 sequence
Put plainly: co-IP; nuclear extracts (soluble and insoluble fractions sonicated and mixed) of HEK293-FT cells transiently expressing tagged BAHD1; overnight at 4°C with 1-3 μg antibody (MIER1, V5, HDAC2, HP1γ or YFP/GFP; IgG control), Dynabeads Protein G; washes in Tris 20 mM pH 7.65, NaCl 150 mM, 0.05% IGEPAL; immunoblot.

In test [2] the target is HDAC2 (human (endogenous in HEK293)) (UniProt Q92769). Described as above.
Another test has as its target T3, YFPc-BAHD1-ΔcPRR (UniProt Q8TBE0).
T3 sequence: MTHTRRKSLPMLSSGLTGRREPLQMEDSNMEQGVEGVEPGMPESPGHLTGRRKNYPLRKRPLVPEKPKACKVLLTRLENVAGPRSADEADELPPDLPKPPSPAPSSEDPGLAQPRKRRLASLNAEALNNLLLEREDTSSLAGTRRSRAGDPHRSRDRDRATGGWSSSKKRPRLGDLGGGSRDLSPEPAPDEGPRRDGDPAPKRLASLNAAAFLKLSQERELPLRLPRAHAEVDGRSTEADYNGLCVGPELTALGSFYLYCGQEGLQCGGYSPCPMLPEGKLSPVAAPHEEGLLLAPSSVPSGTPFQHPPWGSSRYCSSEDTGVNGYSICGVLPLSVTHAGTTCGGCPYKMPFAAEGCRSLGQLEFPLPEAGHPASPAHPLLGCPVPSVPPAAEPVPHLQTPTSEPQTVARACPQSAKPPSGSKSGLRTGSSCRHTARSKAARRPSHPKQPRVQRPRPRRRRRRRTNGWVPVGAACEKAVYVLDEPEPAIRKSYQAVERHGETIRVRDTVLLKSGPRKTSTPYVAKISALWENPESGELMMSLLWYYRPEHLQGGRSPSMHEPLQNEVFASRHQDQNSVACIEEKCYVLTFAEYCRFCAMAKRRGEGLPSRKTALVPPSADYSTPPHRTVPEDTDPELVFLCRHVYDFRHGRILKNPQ
The description is as above.

The target of another test is T4, YFPc-BAHD1 (UniProt Q8TBE0).
T4 sequence: T1 sequence
The description is as above.

A further test has as its target T5, YFPc-BAHD1-ΔBAH (UniProt Q8TBE0).
T5 sequence: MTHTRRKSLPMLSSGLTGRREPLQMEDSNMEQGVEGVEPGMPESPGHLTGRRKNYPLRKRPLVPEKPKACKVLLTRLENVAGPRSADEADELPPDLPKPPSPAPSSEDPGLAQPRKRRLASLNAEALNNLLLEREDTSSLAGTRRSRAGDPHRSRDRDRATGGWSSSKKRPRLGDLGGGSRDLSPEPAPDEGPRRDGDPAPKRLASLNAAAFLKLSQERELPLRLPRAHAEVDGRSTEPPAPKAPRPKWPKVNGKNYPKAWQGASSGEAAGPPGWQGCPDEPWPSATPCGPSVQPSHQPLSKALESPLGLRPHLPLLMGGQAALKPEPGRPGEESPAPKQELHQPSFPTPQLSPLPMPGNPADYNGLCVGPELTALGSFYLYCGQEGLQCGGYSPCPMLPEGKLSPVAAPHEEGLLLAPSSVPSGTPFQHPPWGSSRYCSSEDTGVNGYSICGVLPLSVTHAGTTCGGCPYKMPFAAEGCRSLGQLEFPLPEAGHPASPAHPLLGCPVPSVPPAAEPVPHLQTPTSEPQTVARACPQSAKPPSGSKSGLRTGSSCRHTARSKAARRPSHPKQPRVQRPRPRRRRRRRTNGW
The description is as above.

Test [3] addresses MIER1 (mesoderm induction early response protein 1) (human (endogenous in HEK293)) (UniProt Q8N108). Described as above.
Test [4] concerns the target HDAC2 (human (endogenous in HEK293)) (UniProt Q92769). The description is as above. This is another data set of the same source.

With “G9a (from UniProt Q96KQ7 1-1210) (enzyme)”, the binding entry in test [1] was “binds”.

For KAP1 (from UniProt Q13263 1-835), the binding result in test [1] is “binds”.

Regarding HP1γ (from UniProt Q13185 1-183), the binding entry in test [1] was “binds”; in the test with V5-tagged BAHD1 it was “binds”; in test [2], “binds weakly”; in the test with YFPc-BAHD1-ΔcPRR, “binds”; with YFPc-BAHD1 it was “binds”; with YFPc-BAHD1-ΔBAH it was “binds”. For the same molecule, in test [3], the binding entry is on record as “binds”.

Take “HDAC1 (from UniProt Q13547 1-482) (enzyme)”: the binding result in test [1] is given as “binds”.

Take “HDAC2 (from UniProt Q92769 1-488) (enzyme)”: the binding entry in test [1] was “binds”; in the test with YFPc-BAHD1-ΔcPRR, “binds”; with YFPc-BAHD1, “binds”; with YFPc-BAHD1-ΔBAH, “no binding”.

B1: MBD1 (protein, UniProt Q9UIS9 1-605)
chain: MAEDWLDCPALGPGWKRREVFRKSGATCGRSDTYYQSPTGDRIRSKVELTRYLGPACDLTLFDFKQGILCYPAPKAHPVAVASKKRKKPSRPAKTRKRQVGPQSGEVRKEAPRDETKADTDTAPASFPAPGCCENCGISFSGDGTQRQRLKTLCKDCRAQRIAFNREQRMFKRVGCGECAACQVTEDCGACSTCLLQLPHDVASGLFCKCERRRCLRIVERSRGCGVCRGCQTQEDCGHCPICLRPPRPGLRRQWKCVQRRCLRGKHARRKGGCDSKMAARRRPGAQPLPPPPPSQSPEPTEPHPRALAPSPPAEFIYYCVDEDELQPYTNRRQNRKCGACAACLRRMDCGRCDFCCDKPKFGGSNQKRQKCRWRQCLQFAMKRLLPSVWSESEDGAGSPPPYRRRKRPSSARRHHLGPTLKPTLATRTAQPDHTQAPTKQEAGGGFVLPPPGTDLVFLREGASSPVQVPGPVAASTEALLQEAQCSGLSWVVALPQVKQEKADTQDEWTPGTAVLTSPVLVPGCPSKAVDPGLPSVKQEPPDPEEDKEENKDDSASKLAPEEEAGGAGTPVITEIFSLGGTRFRDTAVWLPRSKDLKKPGARKQ
With B1, the binding entry in test [1] is recorded as “binds”.

B2: V5-tagged BAHD1 (protein, UniProt Q8TBE0 1-780)
chain: T1 sequence
For B2, in test [4], the binding entry is “binds weakly”.
